# Patent US20240315283A1, “ISOFUCOSTEROL A KEY NUTRIENT FOR PHYTOSTEROL EATING ANIMALS SUCH AS POLLEN EATING AND ALGAE-EATING AND PLANKTON EATING ORGANISMS” (APIX BIOSCIENCES, priority 2021, published 2024)
# Tested on: Bumblebee worker
# Test: Isofucosterol composition of bumblebee workers
# Design: species or system Bombus terrestris
smiles,measurement,setting,value
"C/C=C(/CC[C@@H](C)[C@H]1CC[C@H]2[C@@H]3CC=C4C[C@@H](O)CC[C@]4(C)[C@H]3CC[C@]12C)C(C)C [isofucosterol, Isofucosterol]",Isofucosterol (% total),"Bumblebee worker, percentage of total bee-relevant phytosterols",50.15 % total
same,isofucosterol share of corporeal sterols,bumblebees such as Bombus terrestris,40-55%
same,isofucosterol as share of total dry weight,total dry weight of a bumblebee,0.10-0.25%
